Results are given in words; binding and its absence hold for the method and conditions named. In cells and extracts the contact can be indirect.

Protein sequences, listed by entry. Tags and fused reporters are not part of them. Lines headed by an entry give the natural chain unless they say otherwise; changes in a name come on top.
UniProt Q8C8R3: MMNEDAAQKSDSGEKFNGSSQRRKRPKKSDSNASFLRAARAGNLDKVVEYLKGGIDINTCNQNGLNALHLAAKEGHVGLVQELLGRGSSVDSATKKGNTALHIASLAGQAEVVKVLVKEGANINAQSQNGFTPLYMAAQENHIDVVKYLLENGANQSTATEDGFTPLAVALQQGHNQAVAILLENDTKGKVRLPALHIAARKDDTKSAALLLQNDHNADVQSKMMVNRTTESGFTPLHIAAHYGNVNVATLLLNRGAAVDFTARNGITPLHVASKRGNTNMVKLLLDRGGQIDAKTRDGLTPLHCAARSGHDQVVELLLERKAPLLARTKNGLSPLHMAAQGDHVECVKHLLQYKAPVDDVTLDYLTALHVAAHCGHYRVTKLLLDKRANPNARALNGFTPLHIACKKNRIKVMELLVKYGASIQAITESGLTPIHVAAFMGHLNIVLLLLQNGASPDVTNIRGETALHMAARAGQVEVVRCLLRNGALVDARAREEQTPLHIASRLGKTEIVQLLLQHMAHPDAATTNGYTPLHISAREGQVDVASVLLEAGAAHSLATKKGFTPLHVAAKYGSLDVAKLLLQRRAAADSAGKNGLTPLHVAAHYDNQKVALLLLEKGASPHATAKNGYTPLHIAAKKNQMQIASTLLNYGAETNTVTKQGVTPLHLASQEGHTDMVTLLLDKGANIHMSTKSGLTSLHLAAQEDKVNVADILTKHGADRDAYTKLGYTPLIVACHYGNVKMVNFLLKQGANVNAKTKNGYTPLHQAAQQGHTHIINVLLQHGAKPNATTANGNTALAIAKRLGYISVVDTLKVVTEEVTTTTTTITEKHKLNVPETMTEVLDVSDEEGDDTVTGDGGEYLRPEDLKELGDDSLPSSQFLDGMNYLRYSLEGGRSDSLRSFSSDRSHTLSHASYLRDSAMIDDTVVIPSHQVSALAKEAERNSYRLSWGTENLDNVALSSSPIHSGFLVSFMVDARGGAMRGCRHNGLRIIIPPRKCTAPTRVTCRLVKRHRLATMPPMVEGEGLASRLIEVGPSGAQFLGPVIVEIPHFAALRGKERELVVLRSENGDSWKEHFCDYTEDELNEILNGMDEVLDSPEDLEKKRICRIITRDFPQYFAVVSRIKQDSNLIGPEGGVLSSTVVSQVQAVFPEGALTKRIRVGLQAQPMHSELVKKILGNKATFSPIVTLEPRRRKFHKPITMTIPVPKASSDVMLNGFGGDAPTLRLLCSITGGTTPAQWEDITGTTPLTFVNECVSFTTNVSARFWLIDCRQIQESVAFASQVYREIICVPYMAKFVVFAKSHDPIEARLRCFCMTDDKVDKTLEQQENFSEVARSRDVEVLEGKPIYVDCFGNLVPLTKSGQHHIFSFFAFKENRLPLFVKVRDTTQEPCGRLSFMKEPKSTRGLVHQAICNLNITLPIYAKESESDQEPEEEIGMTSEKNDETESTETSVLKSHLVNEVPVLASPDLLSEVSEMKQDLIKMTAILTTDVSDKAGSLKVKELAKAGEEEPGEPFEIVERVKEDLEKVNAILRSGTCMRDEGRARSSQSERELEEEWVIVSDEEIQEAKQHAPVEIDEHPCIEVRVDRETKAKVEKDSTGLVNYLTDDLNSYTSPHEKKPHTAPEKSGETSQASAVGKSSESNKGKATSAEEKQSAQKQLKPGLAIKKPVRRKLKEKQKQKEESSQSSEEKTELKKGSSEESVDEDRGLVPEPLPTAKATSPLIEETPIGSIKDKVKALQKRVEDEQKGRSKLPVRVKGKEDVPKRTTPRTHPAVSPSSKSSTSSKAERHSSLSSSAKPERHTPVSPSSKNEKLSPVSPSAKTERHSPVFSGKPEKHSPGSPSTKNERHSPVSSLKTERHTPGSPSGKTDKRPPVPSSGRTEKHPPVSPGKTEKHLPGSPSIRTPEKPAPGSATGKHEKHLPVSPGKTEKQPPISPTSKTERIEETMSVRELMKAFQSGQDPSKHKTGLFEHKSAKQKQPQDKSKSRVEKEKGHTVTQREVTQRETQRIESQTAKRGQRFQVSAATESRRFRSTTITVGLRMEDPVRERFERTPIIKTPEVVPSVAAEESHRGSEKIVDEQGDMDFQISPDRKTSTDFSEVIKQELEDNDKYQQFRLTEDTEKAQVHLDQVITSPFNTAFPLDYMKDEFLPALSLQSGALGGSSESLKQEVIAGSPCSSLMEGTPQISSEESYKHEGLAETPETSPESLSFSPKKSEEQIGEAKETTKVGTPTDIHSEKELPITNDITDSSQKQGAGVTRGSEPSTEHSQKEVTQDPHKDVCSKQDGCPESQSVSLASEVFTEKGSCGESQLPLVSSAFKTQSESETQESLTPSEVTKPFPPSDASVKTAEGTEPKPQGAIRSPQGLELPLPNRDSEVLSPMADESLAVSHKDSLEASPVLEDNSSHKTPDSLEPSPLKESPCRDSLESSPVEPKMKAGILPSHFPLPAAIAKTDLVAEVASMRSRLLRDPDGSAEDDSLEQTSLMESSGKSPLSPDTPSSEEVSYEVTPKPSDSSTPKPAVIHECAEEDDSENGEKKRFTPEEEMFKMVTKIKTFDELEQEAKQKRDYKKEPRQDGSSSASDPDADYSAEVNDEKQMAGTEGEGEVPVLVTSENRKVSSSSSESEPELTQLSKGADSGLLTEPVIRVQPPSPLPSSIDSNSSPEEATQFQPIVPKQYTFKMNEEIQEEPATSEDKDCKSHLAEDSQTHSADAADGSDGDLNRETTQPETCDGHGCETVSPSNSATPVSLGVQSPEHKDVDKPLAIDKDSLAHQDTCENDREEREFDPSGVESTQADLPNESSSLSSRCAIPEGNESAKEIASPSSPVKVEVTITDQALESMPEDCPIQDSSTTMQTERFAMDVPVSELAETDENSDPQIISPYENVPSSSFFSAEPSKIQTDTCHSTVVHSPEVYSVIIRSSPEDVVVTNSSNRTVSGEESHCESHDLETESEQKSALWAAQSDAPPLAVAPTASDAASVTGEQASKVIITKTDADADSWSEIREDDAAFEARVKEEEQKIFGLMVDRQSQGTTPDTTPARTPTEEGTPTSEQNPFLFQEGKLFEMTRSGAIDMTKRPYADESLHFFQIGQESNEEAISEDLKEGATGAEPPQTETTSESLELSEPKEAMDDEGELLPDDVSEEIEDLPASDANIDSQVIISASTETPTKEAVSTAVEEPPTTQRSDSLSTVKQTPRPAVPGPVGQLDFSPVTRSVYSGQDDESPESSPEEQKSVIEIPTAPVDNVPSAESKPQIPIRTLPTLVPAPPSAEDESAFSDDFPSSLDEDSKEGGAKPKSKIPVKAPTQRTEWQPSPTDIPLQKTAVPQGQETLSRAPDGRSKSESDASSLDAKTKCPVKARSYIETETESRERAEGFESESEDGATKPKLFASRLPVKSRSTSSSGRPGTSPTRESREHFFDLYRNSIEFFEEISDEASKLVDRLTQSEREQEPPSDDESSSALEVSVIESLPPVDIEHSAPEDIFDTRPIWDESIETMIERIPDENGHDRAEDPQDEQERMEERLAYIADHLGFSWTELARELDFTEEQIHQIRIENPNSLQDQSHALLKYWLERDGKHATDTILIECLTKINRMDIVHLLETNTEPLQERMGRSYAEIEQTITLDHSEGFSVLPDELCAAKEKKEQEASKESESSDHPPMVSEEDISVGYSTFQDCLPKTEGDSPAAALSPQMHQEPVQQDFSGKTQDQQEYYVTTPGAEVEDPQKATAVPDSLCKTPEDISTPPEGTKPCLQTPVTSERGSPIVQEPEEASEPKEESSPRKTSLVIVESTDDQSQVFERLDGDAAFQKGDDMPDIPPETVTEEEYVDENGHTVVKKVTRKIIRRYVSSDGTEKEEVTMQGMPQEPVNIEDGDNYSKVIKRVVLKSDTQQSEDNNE
UniProt Q9Z351: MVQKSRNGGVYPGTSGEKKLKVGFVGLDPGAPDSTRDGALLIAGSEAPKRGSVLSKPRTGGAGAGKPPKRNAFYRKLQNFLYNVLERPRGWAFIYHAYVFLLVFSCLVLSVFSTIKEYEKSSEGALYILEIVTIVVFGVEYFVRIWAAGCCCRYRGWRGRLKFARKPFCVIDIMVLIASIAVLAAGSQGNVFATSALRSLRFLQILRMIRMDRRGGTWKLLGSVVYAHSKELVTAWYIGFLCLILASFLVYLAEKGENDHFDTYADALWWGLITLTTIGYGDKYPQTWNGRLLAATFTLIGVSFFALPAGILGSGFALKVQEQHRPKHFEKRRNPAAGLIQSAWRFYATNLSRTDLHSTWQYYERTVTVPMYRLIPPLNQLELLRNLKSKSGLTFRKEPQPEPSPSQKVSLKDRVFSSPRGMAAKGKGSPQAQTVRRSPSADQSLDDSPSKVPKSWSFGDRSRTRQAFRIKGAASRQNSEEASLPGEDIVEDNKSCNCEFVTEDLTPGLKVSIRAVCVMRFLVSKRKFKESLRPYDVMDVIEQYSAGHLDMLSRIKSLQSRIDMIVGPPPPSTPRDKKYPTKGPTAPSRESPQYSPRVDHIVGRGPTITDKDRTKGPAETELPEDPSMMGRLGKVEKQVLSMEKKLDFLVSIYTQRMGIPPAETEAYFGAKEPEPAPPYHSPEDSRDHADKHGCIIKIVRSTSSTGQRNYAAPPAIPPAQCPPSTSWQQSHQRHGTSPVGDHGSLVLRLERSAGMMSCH
UniProt Q8K3F6: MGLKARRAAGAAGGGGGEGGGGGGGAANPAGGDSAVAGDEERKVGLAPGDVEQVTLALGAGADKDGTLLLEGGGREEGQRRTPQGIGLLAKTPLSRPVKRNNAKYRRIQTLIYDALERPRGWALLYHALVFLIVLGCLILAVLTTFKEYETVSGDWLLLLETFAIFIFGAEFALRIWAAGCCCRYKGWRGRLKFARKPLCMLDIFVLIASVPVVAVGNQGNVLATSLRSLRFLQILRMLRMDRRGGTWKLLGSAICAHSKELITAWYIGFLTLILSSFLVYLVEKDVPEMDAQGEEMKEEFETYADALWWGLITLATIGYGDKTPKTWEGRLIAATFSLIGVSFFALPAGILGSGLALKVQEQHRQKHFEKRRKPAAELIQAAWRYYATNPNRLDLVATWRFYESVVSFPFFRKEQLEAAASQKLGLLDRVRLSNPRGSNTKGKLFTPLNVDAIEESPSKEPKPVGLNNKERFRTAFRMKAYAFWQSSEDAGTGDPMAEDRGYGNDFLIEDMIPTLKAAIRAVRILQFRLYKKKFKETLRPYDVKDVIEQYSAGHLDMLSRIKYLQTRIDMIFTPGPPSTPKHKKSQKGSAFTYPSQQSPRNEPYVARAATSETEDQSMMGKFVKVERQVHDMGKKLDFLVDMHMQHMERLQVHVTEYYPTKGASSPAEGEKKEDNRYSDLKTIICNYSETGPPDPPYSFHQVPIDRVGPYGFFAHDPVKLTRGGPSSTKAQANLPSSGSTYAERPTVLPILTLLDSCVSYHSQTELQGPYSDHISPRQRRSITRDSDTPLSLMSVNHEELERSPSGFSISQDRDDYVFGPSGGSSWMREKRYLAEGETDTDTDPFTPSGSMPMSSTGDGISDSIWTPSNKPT

The target of this experiment is Ank2 (Ankyrin-B) (mouse (endogenous in cultured hippocampal neurons)) (UniProt Q8C8R3). In words: co-IP; lysate of WT mouse cultured hippocampal neurons (DIV 17-18); lysis buffer 150 mM NaCl, 50 mM Tris pH 7.4, 1 mM EDTA, 1% TX-100; 1 ug mouse IgG, anti-Ank2 or anti-Ank3 antibody, 4 °C 2 h; protein A/G agarose beads; immunoblot. (In western blotting, separated proteins are transferred to a membrane and probed.)

For “Kv7.2/KCNQ2 potassium channel subunit (from UniProt Q9Z351 1-759)”, the binding result is listed as “no binding”.

Take “Kv7.3/KCNQ3 potassium channel subunit (from UniProt Q8K3F6 1-873)”: the binding result is listed as “no binding”.
